Data on one molecule can be found in article PMC5458386, “Crystal structures of human Fabs targeting the Bexsero meningococcal vaccine antigen NHBA” (Acta Crystallographica. Section F, Structural Biology …, 2017).

These are yes or no findings as the source states them, for the method shown.

This assay addresses Fab 10C3 (human). Nature of the assay: condition: 100 nM (highest concentration of the titration, 6.25 to 100 nM); SPR; Biacore T200, 25 °C; Fab (800-1100 RU) captured by anti-Fab mAbs (Human Fab Capture Kit) on a CM5 chip; NHBA injected, single-cycle kinetics, five injections 6.25-100 nM, 30 µl/min; HBS-EP (10 mM HEPES, 150 mM NaCl, 3 mM EDTA, 0.05% P20, pH 7.4); 1:1 Langmuir model with mass-transfer term; duplicate; both purified.

B1: Neisserial heparin-binding antigen (NHBA) peptide 20 (protein, UniProt Q9JPP1 18-427)
chain: CGGGGGGSPDVKSADTLSKPAAPVVAEKETEVKEDAPQAGSQGQGAPSTQGSQDMAAVSAENTGNGGAATTDKPKNEDEGPQNDMLQNSAESANQTGNNQPADSSDSAPASNPAPANGGSNFGRVDLANGVLIDGPSQNITLTHCKGDSCNGDNLLDEEAPSKSEFENLNESERIEKYKKDGKSDKFTNLVATAVQANGTNKYVIIYKDKSASSSFARFRRSARSRRSLPAEMPLIPVNQADTLIVDGEAVSLTGHSGNIFAPEGNYRYLTYGAEKLPGGSYALRVQGEPAKGEMLAGTAVYNGEVLHFHTENGRPYPTRGRFAAKVDFGSKSVDGIIDSGDDLHMGTQKFKAAIDGNGFKGTWTENGGGDVSGRFYGPAGEEVAGKYSYRPTDAEKGGFGVFAGKKEQD
As for B1, the binding result is “no binding”.
